Assay [1] addresses T1, endogenous Unr (human (endogenous in HeLa)) (UniProt O75534).
T1 sequence: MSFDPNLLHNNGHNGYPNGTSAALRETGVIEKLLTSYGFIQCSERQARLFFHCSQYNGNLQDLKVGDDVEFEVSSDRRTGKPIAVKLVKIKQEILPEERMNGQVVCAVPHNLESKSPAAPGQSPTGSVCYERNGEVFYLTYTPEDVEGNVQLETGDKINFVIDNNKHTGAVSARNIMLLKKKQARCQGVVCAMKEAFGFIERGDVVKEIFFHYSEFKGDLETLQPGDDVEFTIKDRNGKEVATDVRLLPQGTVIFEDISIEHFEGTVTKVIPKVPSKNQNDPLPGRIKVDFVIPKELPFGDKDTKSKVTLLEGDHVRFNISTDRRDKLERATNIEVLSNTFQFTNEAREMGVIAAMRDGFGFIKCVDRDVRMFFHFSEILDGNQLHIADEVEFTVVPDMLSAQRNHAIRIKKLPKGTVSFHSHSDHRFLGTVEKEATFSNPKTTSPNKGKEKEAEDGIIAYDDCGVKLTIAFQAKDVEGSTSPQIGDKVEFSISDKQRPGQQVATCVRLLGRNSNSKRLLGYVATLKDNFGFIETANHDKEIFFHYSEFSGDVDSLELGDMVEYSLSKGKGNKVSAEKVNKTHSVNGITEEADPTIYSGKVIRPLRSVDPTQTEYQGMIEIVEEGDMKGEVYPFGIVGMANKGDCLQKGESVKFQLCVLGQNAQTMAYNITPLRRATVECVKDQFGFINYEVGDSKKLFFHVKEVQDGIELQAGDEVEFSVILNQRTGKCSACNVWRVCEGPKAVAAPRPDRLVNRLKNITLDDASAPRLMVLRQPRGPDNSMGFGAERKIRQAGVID
Description: co-IP; IP with anti-Unr (anti-CSDE1 rabbit pAb) on Dynabeads Protein A from untreated HeLa lysate, 4 hr at 4 °C, NT2 buffer; western blot.

The chains behind the UniProt entries cited, without tags or fusion partners.
UniProt P11940: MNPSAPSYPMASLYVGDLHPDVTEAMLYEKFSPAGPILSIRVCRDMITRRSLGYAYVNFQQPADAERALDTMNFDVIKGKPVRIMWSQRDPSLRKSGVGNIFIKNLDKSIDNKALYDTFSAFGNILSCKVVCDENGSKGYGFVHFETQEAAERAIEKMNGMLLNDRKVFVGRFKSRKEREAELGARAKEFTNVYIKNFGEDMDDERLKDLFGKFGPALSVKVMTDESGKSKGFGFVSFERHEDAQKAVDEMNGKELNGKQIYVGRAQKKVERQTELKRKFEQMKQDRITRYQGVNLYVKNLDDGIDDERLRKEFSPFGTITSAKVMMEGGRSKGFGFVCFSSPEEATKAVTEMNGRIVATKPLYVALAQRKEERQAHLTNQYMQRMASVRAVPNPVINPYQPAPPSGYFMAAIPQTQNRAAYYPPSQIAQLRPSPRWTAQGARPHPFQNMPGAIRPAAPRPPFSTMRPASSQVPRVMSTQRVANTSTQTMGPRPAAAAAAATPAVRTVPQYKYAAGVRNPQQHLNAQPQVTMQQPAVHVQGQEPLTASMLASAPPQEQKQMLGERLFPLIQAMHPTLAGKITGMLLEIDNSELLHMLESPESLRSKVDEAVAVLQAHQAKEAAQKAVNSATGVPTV

Assay [2] has as its target T1, endogenous Unr (human (endogenous in HeLa)). In words: co-IP; IP with anti-Unr from untreated HeLa lysate in the presence of 0.1 mg/ml RNase A (30 min at room temperature before IP); western blot.
In another assay the target is T2, GST-tagged PABP1 (UniProt P11940 1-636).
T2 construct: also called GST-PABP1; source: E. coli BL21(DE3) from pGEX2T, purified (glutathione Sepharose 4B)
Description: pull-down; 2 ug GST-PABP1 (or GST) on glutathione Sepharose 4B; 10 ul 35S-labelled TnT reaction added, 1 hr at 4 °C; 50 mM Tris pH 7.5, 100 mM KCl, 0.5 mM EDTA, 0.1% NP40, 1 mM DTT, 1 mM benzamidine; autoradiography, ImageJ, normalised against inputs, relative to wt Unr on GST-PABP1; only the target purified.

Results are given in words; binding and its absence hold for the method and conditions named. In cells and extracts the contact can be indirect. Some entries that bind do so weakly or less than the wild type.

Regarding “endogenous PABP1 (from UniProt P11940 1-636)”, the binding result in assay [1] and in assay [2] was “binds” throughout.

B1: wild type Unr, in vitro translated, 35S-labelled (natural protein, human, UniProt O75534-2 1-767, looked up)
chain: MSFDPNLLHNNGHNGYPNGTSAALRETGVIEKLLTSYGFIQCSERQARLFFHCSQYNGNLQDLKVGDDVEFEVSSDRRTGKPIAVKLVKIKQEILPEERMNGQEVFYLTYTPEDVEGNVQLETGDKINFVIDNNKHTGAVSARNIMLLKKKQARCQGVVCAMKEAFGFIERGDVVKEIFFHYSEFKGDLETLQPGDDVEFTIKDRNGKEVATDVRLLPQGTVIFEDISIEHFEGTVTKVIPKVPSKNQNDPLPGRIKVDFVIPKELPFGDKDTKSKVTLLEGDHVRFNISTDRRDKLERATNIEVLSNTFQFTNEAREMGVIAAMRDGFGFIKCVDRDVRMFFHFSEILDGNQLHIADEVEFTVVPDMLSAQRNHAIRIKKLPKGTVSFHSHSDHRFLGTVEKEATFSNPKTTSPNKGKEKEAEDGIIAYDDCGVKLTIAFQAKDVEGSTSPQIGDKVEFSISDKQRPGQQVATCVRLLGRNSNSKRLLGYVATLKDNFGFIETANHDKEIFFHYSEFSGDVDSLELGDMVEYSLSKGKGNKVSAEKVNKTHSVNGITEEADPTIYSGKVIRPLRSVDPTQTEYQGMIEIVEEGDMKGEVYPFGIVGMANKGDCLQKGESVKFQLCVLGQNAQTMAYNITPLRRATVECVKDQFGFINYEVGDSKKLFFHVKEVQDGIELQAGDEVEFSVILNQRTGKCSACNVWRVCEGPKAVAAPRPDRLVNRLKNITLDDASAPRLMVLRQPRGPDNSMGFGAERKIRQAGVID
modifications: radiolabelled with [35S] methionine
notes: numbers count on: Unr protein isoform 2; Same pET21d plasmids as for the histidine-tagged recombinant Unr; also called wt Unr; CSDE1; source: in vitro transcribed/translated from pET21d plasmid (TnT Quick Coupled System, Promega), not purified
In the case of B1, the binding result with GST-tagged PABP1 was “binds”.

For the origin of these results see PMC4776140, “Stimulation of translation by human Unr requires cold shock domains 2 and 4, and correlates with poly(A) binding protein interaction” (Scientific Reports, 2016).
